Reference: article PMC6480920
Construct, isoform or probe ends are uncertain for at least one entry. For part of these data: A weaker result is weaker than the reference pair of the same experiment. At least one verdict rests on a figure or table, not on a statement of the authors.

Chains of the proteins cited; added tags and fusions are not shown. Residues count along the entry.
UniProt Q15366, whole entry: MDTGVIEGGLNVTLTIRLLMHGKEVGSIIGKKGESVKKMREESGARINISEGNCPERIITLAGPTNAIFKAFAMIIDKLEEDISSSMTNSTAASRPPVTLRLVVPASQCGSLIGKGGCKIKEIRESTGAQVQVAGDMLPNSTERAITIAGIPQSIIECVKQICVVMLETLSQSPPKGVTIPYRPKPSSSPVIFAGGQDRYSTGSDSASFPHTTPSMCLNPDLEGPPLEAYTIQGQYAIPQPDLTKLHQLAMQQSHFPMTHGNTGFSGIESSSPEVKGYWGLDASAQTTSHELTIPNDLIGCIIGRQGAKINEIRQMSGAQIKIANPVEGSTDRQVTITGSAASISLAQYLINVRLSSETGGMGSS
UniProt P02769, 25-607: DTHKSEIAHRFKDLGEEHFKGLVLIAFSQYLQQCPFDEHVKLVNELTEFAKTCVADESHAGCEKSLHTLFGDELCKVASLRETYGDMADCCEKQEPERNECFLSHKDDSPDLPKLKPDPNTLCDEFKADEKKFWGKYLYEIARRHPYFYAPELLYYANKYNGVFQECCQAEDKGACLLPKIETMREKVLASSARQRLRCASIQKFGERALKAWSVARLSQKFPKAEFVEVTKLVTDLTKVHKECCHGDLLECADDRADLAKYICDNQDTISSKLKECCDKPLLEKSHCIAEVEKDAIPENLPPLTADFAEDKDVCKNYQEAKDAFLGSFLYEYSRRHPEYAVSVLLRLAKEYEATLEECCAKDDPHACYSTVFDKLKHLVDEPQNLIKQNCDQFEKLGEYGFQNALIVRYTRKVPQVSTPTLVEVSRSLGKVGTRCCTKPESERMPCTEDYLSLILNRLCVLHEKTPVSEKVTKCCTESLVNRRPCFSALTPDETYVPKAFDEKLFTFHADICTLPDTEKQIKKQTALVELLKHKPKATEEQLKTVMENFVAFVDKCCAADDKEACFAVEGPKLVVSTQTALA

target: PCBP-2 (poly(C)-binding protein 2) (UniProt Q15366); test: colorimetric ELONA; conditions: Kd in range 9.9-109.5 nM, value in figure, similar to qPCR read-out; recombinant protein; protein details: N-terminal 6xHis; label: 3' digoxigenin; single-stranded DNA

| Sequence | binding result |
| --- | --- |
| GCGGATCCAGACTGGTGTACTGGGCTAGTTGCCTCTGCAGATTAGATGATGACAGTGGCCCTAAAGACAAGCTTC [05DS10-02-DIG] | binds |

same assay, conditions: Kd in range 9.9-109.5 nM, value in figure; recombinant protein; protein details: N-terminal 6xHis; label: 3' digoxigenin; single-stranded DNA

| Sequence | binding result |
| --- | --- |
| GCGGATCCAGACTGGTGTCAATGGTACTCTTCATTGTAGTCGCTTTGTTTATTAGCCGGCCCTAAAGACAAGCTTC [05DS10-22-DIG] | binds |
| GCGGATCCAGACTGGTGTCCTATCTATAATTTTGCAGTCCACGTTTCTCTTGTGTGTGCCCTAAAGACAAGCTTC [05DS10-18-DIG] | binds |
| GCGGATCCAGACTGGTGTGCACAGCACATGCATTACTGCGGTAATCCGTGTCCTTTGTGCCCTAAAGACAAGCTTC [05DS10-01-DIG] | binds |
| GCGGATCCAGACTGGTGTGCAGGTATGCCGGATCATGTCGTGAAAGTATCCATTTCTCGCCCTAAAGACAAGCTTC [05DS10-12-DIG] | binds |
| GCGGATCCAGACTGGTGTGGGAATGTTGTTTATGTATTTGTTCTGAGCTCTACCTTTGCCCTAAAGACAAGCTTC [05DS10-26-DIG] | binds |
| GCGGATCCAGACTGGTGTACCTGTTAGCAAGAGTTTATTATGTAAAGATATCCGTTGGGCCCTAAAGACAAGCTTC [05DS10-05-DIG] | binds |
| GCGGATCCAGACTGGTGTGGAGGTTAGCCGAAACACGTATACGCGTATTTATCCTCGGGCCCTAAAGACAAGCTTC [05DS10-21-DIG] | binds |

target: BSA (UniProt P02769); test: ELONA-RTqPCR; conditions: high specificity for PCBP-2 over BSA, 100 nM RNA; commercial protein

| Sequence | binding result |
| --- | --- |
| GGGGCGGAUCCAGACUGGUGUACACGGUGUUUAGUAGUUUAAUGAAUCUUUUAGUUCUUGGGCCCUAAAGACAAGCUUC [05RS10-09] | binds more weakly |
